Laboratory results as given in patent publication US20210179680A1, “POLYPEPTIDE, DERIVATIVES THEREOF, AND APPLICATION THEREOF IN PREPARATION OF DRUGS HAVING RESISTANCE TO PULMONARY FIBROSIS” (priority 2016, published 2021).
No constants are given. Whether binding was seen depends on the method and setting. Some binding calls cover weakened binding; strength is not graded here.

Protein sequences, listed by entry. Tags and fused reporters are not part of them.
UniProt Q96RU7: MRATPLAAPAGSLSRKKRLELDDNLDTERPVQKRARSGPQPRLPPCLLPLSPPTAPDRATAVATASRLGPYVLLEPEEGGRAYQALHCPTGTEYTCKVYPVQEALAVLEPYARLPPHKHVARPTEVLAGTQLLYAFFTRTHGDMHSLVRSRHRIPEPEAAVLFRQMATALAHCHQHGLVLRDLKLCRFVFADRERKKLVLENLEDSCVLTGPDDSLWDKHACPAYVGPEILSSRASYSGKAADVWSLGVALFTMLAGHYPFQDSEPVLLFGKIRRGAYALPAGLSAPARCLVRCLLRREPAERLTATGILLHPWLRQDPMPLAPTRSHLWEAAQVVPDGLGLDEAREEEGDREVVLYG

Assays:
[1] = target: Purified TRB3 protein (purchased from RD) (UniProt Q96RU7); assay: SPR (Biacore T200), TRB3 amine-coupled to the chip, peptide injected at 3.125-800 nM, HBS-EP, 25 C
[2] = target: Purified TRB3 protein (purchased from RD) (UniProt Q96RU7); assay: SPR, Biacore T200
[3] = target: Purified TRB3 protein (purchased from RD) (UniProt Q96RU7); assay: SPR

Measured: binding

B1: polypeptide MR2 (peptide)
peptide: HLMACFTCAKKLKKR
binds: all assays above
